{"source": "patent US20250083204A1", "about": "“CUPRIAVIDUS METALLIDURANS CML2, ITS PREPARATION, AND ITS BIOREMEDIATION METHOD FOR HEAVY METAL-CONTAMINATED ENVIRONMENT” (priority 2023, published 2025)", "tested_on": "rice seedling", "experiment": "Cadmium accumulation in rice seedling roots and shoots", "format": "in vivo", "details": "cadmium treatment alone", "data": [{"smiles": "[Cd+2]", "note": "[Cadmium (Cd^2+), Cadmium]", "values": [{"measurement": "cadmium content in the root", "result": 92.29, "unit": "µg/g"}, {"measurement": "cadmium content in the shoot", "result": 39.75, "unit": "µg/g"}]}]}
